Reference: patent CN113683697A
No constants are given. Whether binding was seen depends on the method and setting. Some binding calls cover weakened binding; strength is not graded here. Sequences can lack the tags named with a protein. One block for each binder: values may come before it.

Molecular target: T1, 人2Ig-B7-H3抗原 (Acro, 货号B73-H52E2), His-tag (human) (UniProt Q5ZPR3)
T1 sequence (looked up): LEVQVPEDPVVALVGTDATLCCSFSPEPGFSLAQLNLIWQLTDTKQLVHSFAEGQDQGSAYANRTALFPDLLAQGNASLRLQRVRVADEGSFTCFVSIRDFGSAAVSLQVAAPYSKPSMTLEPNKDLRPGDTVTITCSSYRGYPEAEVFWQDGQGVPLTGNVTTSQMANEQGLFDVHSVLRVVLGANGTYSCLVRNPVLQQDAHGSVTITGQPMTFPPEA
Test: ELISA, antigen coated at 1 μg/mL

- binding: binds
B1: h27B4-H4-L3 (antibody, human IgG1, kappa, V domains shown)
VH: EVQLVQSGAEVKKPGESLKISCKASGYTFTTYWIGWVRQMPGKGLEWMGIIYPGDGGSRYSPSFQGQVTISADKSISTAYLQWSSLKASDTAMYYCARGGNYISFPMYYWGQGTLVTVSS
VL: EIVMTQSPATLSVSPGERATLSCKASRGVSTALAWYQQKPGQAPRLLIYWASTRATGIPARFSGSGSGTEFTLTISSLQSEDFAVYYCQQHYDTPYTFGQGTKLEIKR

- binding: binds
B2: 单克隆抗体27B4 (mouse monoclonal antibody from hybridoma 27B4) (antibody, V domains shown)
VH: QVQLQQSGAELARPGASVKLSCKASGYTFTTYWMQWIQQRPGQGLEWIGAIYPGDGGSRYTQRFKGKATMTADPSSSTVYMQLTSLASEDSAVYFCARGGNYISFPMYYWGQGTSVTVSP
VL: DIVMTQSHKFMSTSVGDRVSITCKASRGVSTAVAWYQQKPGQSPKLLIYWASTRHTGVPDRFTGSGSGTDYTLTISSVQAEDLALYYCQQHYDTPYTFGGGTKLEIQ
